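The test systems are human melanoma cell lines, treated with a pair of drugs for 72 h and then stained and imaged. The read-out is cell count (nuclei) in % of the DMSO control; lower values mean stronger growth inhibition or killing. Concentrations were fixed for each drug; these are the lower of two levels, a fifth of the higher. These are primary screening values without error estimates.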 An unselected part of the screen is shown. An entry leaves out what has no value listed here. A dash means that no value is listed here.

Compounds and concentrations:
STA-4783, 0.006 µM: CN(NC(=O)CC(=O)NN(C)C(=S)c1ccccc1)C(=S)c1ccccc1
SNS-314, 0.0008 µM: O=C(Nc1cccc(Cl)c1)Nc1ncc(CCNc2ncnc3ccsc23)s1
dasatinib, 0.004 µM: Cc1nc(Nc2ncc(C(=O)Nc3c(C)cccc3Cl)s2)cc(N2CCN(CCO)CC2)n1
CHIR-265, 0.08 µM: Cn1c(Nc2ccc(C(F)(F)F)cc2)nc2cc(Oc3ccnc(-c4ncc(C(F)(F)F)[nH]4)c3)ccc21
cediranib, 0.4 µM: COc1cc2c(Oc3ccc4[nH]c(C)cc4c3F)ncnc2cc1OCCCN1CCCC1
tanespimycin, 0.002 µM: C=CCNC1=C2C[C@@H](C)C[C@H](OC)[C@H](O)[C@@H](C)/C=C(\C)[C@H](OC(N)=O)[C@@H](OC)/C=C\C=C(/C)C(=O)NC(=CC1=O)C2=O
VX-702, 0.4 µM: NC(=O)c1ccc(N(C(N)=O)c2c(F)cccc2F)nc1-c1ccc(F)cc1F
BI-D1870, 0.2 µM: CC(C)CCN1c2nc(Nc3cc(F)c(O)c(F)c3)ncc2N(C)C(=O)C1C (stereo not shown)
AS-252424, 1 µM: O=C1NC(=O)/C(=C/c2ccc(-c3ccc(F)cc3O)o2)S1
L-779450, 0.2 µM: Oc1cc(-c2nc(-c3ccccc3)[nH]c2-c2ccncc2)ccc1Cl
RKI-983, 0.4 µM: C[C@@H](N)c1ccc(C(=O)Nc2ccnc3[nH]ccc23)cc1
LFM-A13, 2 µM: C/C(O)=C(\C#N)C(=O)Nc1cc(Br)ccc1Br
embelin, 1.2 µM: CCCCCCCCCCCC1=C(O)C(=O)C=C(O)C1=O
PD173074, 0.1 µM: CCN(CC)CCCCNc1ncc2cc(-c3cc(OC)cc(OC)c3)c(NC(=O)NC(C)(C)C)nc2n1

| Drugs | MEL-HO | LOX IMVI | A101D | LB2518-MEL | IST-MEL1 | G-361 |
|---|---|---|---|---|---|---|
| SNS-314 + tanespimycin | - | - | 96.5 | - | - | - |
| embelin + STA-4783 | 84.8 | 102 | 93.2 | 85.2 | 81.3 | 91.4 |
| cediranib + L-779450 | 79.1 | 135 | 90.8 | 96.9 | 98.0 | 86.8 |
| BI-D1870 + dasatinib | 81.4 | 58.5 | 84.5 | 94.3 | 86.5 | 83.9 |
| VX-702 + AS-252424 | - | - | 105 | - | - | - |
| cediranib + BI-D1870 | 100 | 131 | 97.4 | 127 | 107 | 89.2 |
| tanespimycin + CHIR-265 | - | - | 62.2 | - | - | - |
| STA-4783 + CHIR-265 | - | - | 58.9 | - | - | - |
| embelin + CHIR-265 | 63.7 | 102 | 61.9 | 55.7 | 99.7 | 60.8 |
| PD173074 + STA-4783 | 90.5 | 98.0 | 81.3 | 79.7 | 86.3 | 79.0 |
| LFM-A13 + PD173074 | 116 | 105 | 106 | 98.2 | 97.1 | 81.3 |
| tanespimycin + VX-702 | 91.9 | 145 | 89.1 | 102 | 90.1 | 87.9 |
| BI-D1870 + SNS-314 | 108 | 113 | 81.0 | 110 | 111 | 91.2 |
| cediranib + LFM-A13 | 101 | 87.0 | 107 | 109 | 101 | 89.3 |
| CHIR-265 + AS-252424 | 72.7 | 70.7 | - | 52.0 | 97.2 | 64.6 |
| VX-702 + BI-D1870 | - | - | 89.0 | - | - | - |
| LFM-A13 + AS-252424 | 86.9 | 111 | 104 | 101 | 100 | 99.2 |
| dasatinib + embelin | 95.7 | 57.2 | 88.9 | 98.8 | 89.8 | 81.6 |
| SNS-314 + CHIR-265 | - | - | 67.3 | - | - | - |
| CHIR-265 + BI-D1870 | 87.5 | 74.1 | 61.1 | 55.2 | 85.0 | 62.5 |
| embelin + SNS-314 | - | - | 108 | - | - | - |
| dasatinib + RKI-983 | 64.7 | 54.0 | 68.6 | 116 | 95.4 | 99.5 |
| AS-252424 + embelin | - | - | 91.7 | - | - | - |

Some entries from above, unchanged:

{"drugs": "tanespimycin + VX-702", "MEL-HO": 91.9, "LOX IMVI": 145, "A101D": 89.1, "LB2518-MEL": 102, "IST-MEL1": 90.1, "G-361": 87.9}
{"drugs": "AS-252424 + embelin", "A101D": 91.7}
{"drugs": "tanespimycin + CHIR-265", "A101D": 62.2}

Source: doi:10.1371/journal.pone.0140310, primary screening data, rounded.